Data: publication PMC5131319, “Occurrence, temporal trends, and half-lives of perfluoroalkyl acids (PFAAs) in occupational workers in China” (Scientific Reports, 2016)

Assay: PFAA concentration in morning urine of occupational workers (HPLC-ESI/MS/MS)
Assay type: in vivo, human
Details: for Detection frequency in the urine samples: all workers; for Relative abundance in the urine: of PFOS, PFHxS and PFOA
Experimental: The selected fluorochemical plant (Henxin Chemical Plant) in this study is one of the largest producers of PFOS-related chemicals in China and is located in Yingcheng, Hubei province. Perfluoroalkyl sulfonic acids (PFSAs) and perfluorotertiary amines are synthesized through an electro-chemical fluorination (ECF) process. We collected paired serum and urine samples from the occupational workers in the plant for five consecutive years, and the sampling activities were carried out in Nov. 2008, Nov. 2009, Nov. 2010, Dec. 2011, and Dec 2012, respectively. The Medical Research Ethics Committee, School of Medicine, Jianghan University, approved the ethics of this study, and all methods were performed in accordance with the relevant guidelines and regulations, moreover, all volunteers gave written informed consent. Demographic information of the donors, including gender, age, length of service, and work assignment, was collected with a questionnaire (Table S1). The sampled population included a total of 302 occupational workers, of which there were 89 female and 213 male participants. In total, 302 serum and 274 urine samples were collected.
The participants were told not to eat breakfast before the sampling, and morning urine samples and blood samples were collected. Serum was separated from the blood by centrifugation at 1100 × g at 4 °C for 10 min and then placed on ice. Serum samples were then transferred to our laboratory on the same day and stored in polypropylene containers at −20 °C until analysis.
All pre-treatment methods and instrument analysis of PFAAs in serum and urine samples are based on previous studies with minor modifications (see Supplementary Information)[3][31]. Based on the PFAA profiles in environmental matrices around the same plant in our previous study, only 3 main PFAAs, PFHxS, PFOA, and PFOS, were analyzed in the obtained serum and urine samples. Instrumental analysis of the PFAAs was performed by a HPLC-ESI/MS/MS system (HPLC: Waters 2695, MS: Waters Quattro Premier XE). The limits of detection (LODs) of PFHxS, PFOA, and PFOS were 0.020, 0.063, and 0.018 ng mL^−1 for serum samples and 0.008, 0.025, and 0.007 ng mL^−1 for urine samples, respectively. A procedural blank was performed for every batch of seven samples, and all of the blank levels were below the LODs. […] Details of quality assurance and quality control of the chemical analysis can be found in the Supplementary Information.
Urine samples were pretreated by solid phase extraction. Briefly, 1 mL of urine spiked with 5 ng of internal standard was added to a 15 - mL PP tube and diluted with 13 mL water. The solid phase extraction procedure was then performed following the previously described serum extraction procedure.

O=S(=O)(O)C(F)(F)C(F)(F)C(F)(F)C(F)(F)C(F)(F)C(F)(F)F [PFHxS, perfluorohexane sulfonate]
Detection frequency in the urine samples: 90%
Relative abundance in the urine: 31%

O=C(O)C(F)(F)C(F)(F)C(F)(F)C(F)(F)C(F)(F)C(F)(F)C(F)(F)F [PFOA, perfluorooctanoic acid]
Detection frequency in the urine samples: 93%

O=S(=O)(O)C(F)(F)C(F)(F)C(F)(F)C(F)(F)C(F)(F)C(F)(F)C(F)(F)C(F)(F)F [PFOS, perfluorooctanesulfonate]
Detection frequency in the urine samples: 91%
Relative abundance in the urine: 19%
